# Out of some 340,000 compounds screened, about 4,500 (1.3%) were called active. This list was built around the results that the source calls inconclusive (neither active nor inactive); the mix of calls is not that of the screen. Calls follow the shape of the dose curve; as a rule, active = well fitted inhibition curve with a large enough effect; inconclusive = small, poorly fitted or top-dose-only effect, or another doubt; inactive = no such curve, though single readings can be large or run the other way. Where the call is inconclusive, the potency comes from a doubtful curve fit.
# Target: DNA polymerase beta (Homo sapiens) (UniProt P06746)
# Assay: qHTS Assay for Inhibitors of DNA Polymerase Beta
# Settings: Pol beta primer extension/strand displacement, fluorescence kinetic; activity change, negative = inhibition: at 114 µM (top of the series)
# Method in brief: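 10 nM enzyme + cpd, 15 min RT; start with substrate 50 nM final; read 0 min and after 10 min RT. Corrected, normalized data; 4-parameter Hill curve fit.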
# % is scaled to controls: 0 for no effect and ±100 for the full control effect; potency is read from the fitted curve at half-maximal effect.
Structure (SMILES),Potency,"activity change, negative = inhibition"
O=C(Nc1cccc(-c2cnc3ccccc3n2)c1)C1CC(=O)N(c2ccccc2)C1 (stereo unspecified),"inconclusive: 39.8 µM [inhibitor, single point]",
NC(=O)c1c(NC(=O)C2COc3ccccc3O2)sc2c1CCN(Cc1ccccc1)C2 (stereo unspecified),inactive,
CCN1CCN(c2ccc(NC(=O)c3ccc4c(c3)[nH]c(=O)n4Cc3ccc(F)cc3)cc2)CC1,"inconclusive: 17.8 µM [inhibitor, full curve, poor fit]",
COc1ccc(NC(=O)COc2ccc(/C=C/c3cc[n+](C)cc3)cc2OC)cc1,"inconclusive: 25.1 µM [inhibitor, full curve]",
CSc1nc2[nH]c3c(c2c2nnnn12)CCCC3,"inconclusive: 70.8 µM [inhibitor, partial curve]",
Nc1nnc(CC(=O)N/N=C/c2ccc(-c3ccccc3Cl)o2)s1,"inconclusive: 25.1 µM [inhibitor, full curve]",
Cc1cc(C)n2nc(CNC(=O)c3ccc(Cl)cc3)nc2n1,"inconclusive: 39.8 µM [inhibitor, single point]",
CCc1ccc(NC(=O)c2cc(S(=O)(=O)NC3CCCCCC3)ccc2F)cc1,inactive,
CN(C)CCCN=c1cc(-c2ccccc2)oc2ccc(Cl)cc12,inactive,
O=C(OCc1cc(Cl)ccc1OC(F)F)c1ccc([N+](=O)[O-])o1,"inconclusive: 14.1 µM [inhibitor, full curve, poor fit]",
Cc1cccc(OCC(=O)N/N=C2/SCC(=O)N2Cc2ccco2)c1,"inconclusive: 1.41 µM [inhibitor, full curve]",
CC(=O)c1ccc(OCc2cc(C(=O)N(C)Cc3ncc(C)[nH]3)no2)cc1,"inconclusive: 89.1 µM [inhibitor, single point]",
COc1cccc(Nc2ncccc2C(=O)NCc2ccccc2)c1,active: 89.1 µM,
COc1ccccc1CNC(=O)CCc1c(C)c2cc3c(C)coc3cc2oc1=O,inactive,
O=S(=O)(Nc1ccc(O)c(Sc2nc3ccccc3s2)c1)c1cc(Cl)ccc1Cl,"inconclusive: 15.8 µM [inhibitor, single point]",
CC1CCCCN1c1cc2c(cc1F)c(=O)c(S(=O)(=O)c1ccccc1)cn2Cc1ccccc1 (stereo unspecified),inactive,
CCN(C(=O)Cn1cc(C(=O)C(=O)N2CCOCC2)c2ccccc21)c1ccccc1,"inconclusive: 89.1 µM [inhibitor, single point]",
CC1CC(C)CN(S(=O)(=O)c2ccc(NC(=O)CN3C(=O)NC(C)(c4ccccc4)C3=O)cc2)C1 (stereo unspecified),"inconclusive: 17.8 µM [inhibitor, single point]",
CCOC(=O)CNC(=O)N1CCCC(C(=O)c2ccccc2SC)C1 (stereo unspecified),"inconclusive: 79.4 µM [inhibitor, single point]",
NC1=NC(=O)/C(=C\c2ccco2)S1,,inconclusive: -72.4% [inhibitor]
CC1=C(C#N)C(=O)NC(=O)/C1=C\c1ccc(-c2cc(C)c(C)cc2[N+](=O)[O-])o1,"inconclusive: 17.8 µM [inhibitor, full curve]",
O=C(CCCN1C(=O)/C(=C\c2ccco2)SC1=S)Nc1cccc2ccccc12,active: 10 µM,

# Grouped by structure, the entries above containing an aryl methoxy group.
Structure (SMILES),Potency,"activity change, negative = inhibition"
COc1ccc(NC(=O)COc2ccc(/C=C/c3cc[n+](C)cc3)cc2OC)cc1,"inconclusive: 25.1 µM [inhibitor, full curve]",
COc1cccc(Nc2ncccc2C(=O)NCc2ccccc2)c1,active: 89.1 µM,
COc1ccccc1CNC(=O)CCc1c(C)c2cc3c(C)coc3cc2oc1=O,inactive,

# Next part

Structure (SMILES),Potency,"activity change, negative = inhibition"
O=c1[nH]c(/C=C\c2cccc(F)c2)nc(O)c1[N+](=O)[O-],"inconclusive: 89.1 µM [inhibitor, single point]",
COc1cc(C(=O)OC2CCCCC2=O)cc(OC)c1C (stereo unspecified),"inconclusive: 22.4 µM [inhibitor, full curve]",
Cc1ccc(NC2=C(Cl)C(=O)OC2OC(=O)c2ccc(C)cc2)cc1 (stereo unspecified),"inconclusive: 79.4 µM [inhibitor, single point]",
COc1ccc(OC)c(S(=O)(=O)Nc2ccc(O)c3ccccc23)c1,"inconclusive: 63.1 µM [inhibitor, partial curve, poor fit]",
CC(C)OCc1c(C(=O)OC/C(O)=C(\C#N)c2nc3ccccc3[nH]2)oc2ccccc12,"inconclusive: 0.251 µM [inhibitor, full curve, poor fit]",
CC(C)CCNC(=O)C1CCN(S(=O)(=O)c2ccc3c(c2)CC(C)N3C(=O)C2CCC2)CC1 (stereo unspecified),active: 56.2 µM,
COc1ccc(C)cc1NC(=O)CSc1nnc(-c2cc3cccc(OC)c3o2)n1N,"inconclusive: 15.8 µM [inhibitor, full curve]",
O=C(NCCc1nc2ccccc2n1Cc1ccccc1F)c1ccc(F)cc1,"inconclusive: 28.2 µM [inhibitor, partial curve]",
CS(=O)(=O)c1ccc2c(c1)sc1nc(=O)c(/C=C3/C=CC(=O)C(O)=C3)c(N)n12,active: 3.16 µM,
CCOC(=O)c1cnc(-c2ccccc2)nc1Oc1ccccc1,"inconclusive: 0.447 µM [inhibitor, full curve, poor fit]",
Cc1ccc(NC(=O)Cn2nc(-c3ccco3)ccc2=O)cc1Cl,"inconclusive: 10 µM [inhibitor, full curve, poor fit]",
Cc1nc(SCC(=O)O)c(C#N)c2c1CCCC2,active: 8.91 µM,
CCCNC(=O)c1ccc(SC)cc1OC,"inconclusive: 3.98 µM [inhibitor, full curve, poor fit]",
CCN(CC)S(=O)(=O)c1ccc(N=Nc2c(C)[nH]n(C(N)=S)c2=O)cc1,active: 39.8 µM,
Clc1cccc(CNc2nc(-c3cccnc3)nc3ccccc23)c1,,inconclusive: -48.9% [inhibitor]
COc1ccccc1NC(=O)CSc1nc(O)cc(=O)[nH]1,inactive,
O=C(Nc1cc(Cl)cc(Cl)c1)c1cc(S(=O)(=O)NC2CCCC2)ccc1F,"inconclusive: 89.1 µM [inhibitor, single point]",
COc1ccc(CN(C)c2ccc(-c3nc(-c4ccc(OC)c(OC)c4)no3)cc2[N+](=O)[O-])cc1,"inconclusive: 0.708 µM [inhibitor, full curve]",
CCOc1ccc2nc(Cl)c(C3CC(c4ccc(C)cc4)=NN3C(=O)CCC(=O)O)cc2c1 (stereo unspecified),"inconclusive: 17.8 µM [inhibitor, full curve]",
CCCC(=O)Nc1sc(Cc2ccccc2)c(C)c1C(N)=O,"inconclusive: 79.4 µM [inhibitor, single point]",
N/N=C(/Cc1nc2ccccc2[nH]1)c1ccc([N+](=O)[O-])cc1,"inconclusive: 79.4 µM [inhibitor, single point]",
O=C(Nc1ccc(F)cc1F)NC1CCCCCCC1,"inconclusive: 2.82 µM [inhibitor, single point]",

# Gathered by group, the entries above with a COOH group (2)
Structure (SMILES),Potency,"activity change, negative = inhibition"
Cc1nc(SCC(=O)O)c(C#N)c2c1CCCC2,active: 8.91 µM,
CCOc1ccc2nc(Cl)c(C3CC(c4ccc(C)cc4)=NN3C(=O)CCC(=O)O)cc2c1 (stereo unspecified),"inconclusive: 17.8 µM [inhibitor, full curve]",

# The listing continues:

Structure (SMILES),Potency,"activity change, negative = inhibition"
Cc1ccc(C2=NN(C(=O)CSc3nc4ncc(Cl)cc4[nH]3)C(c3ccco3)C2)cc1 (stereo unspecified),"inconclusive: 56.2 µM [inhibitor, partial curve, poor fit]",
Cn1c(SCC(=O)c2ccccc2)nc2cccnc21,"inconclusive: 89.1 µM [inhibitor, single point]",
Cc1csc(NC(=O)Nc2ccc(Cl)cc2)n1,active: 28.2 µM,
Nc1ccc2nc(-c3cccc(-c4nc5ccc(N)cc5[nH]4)c3)[nH]c2c1,"inconclusive: 39.8 µM [inhibitor, partial curve]",
Cc1cc(=O)oc2c(CN3CCCC3)c(O)c(Cl)cc12,"inconclusive: 70.8 µM [inhibitor, single point]",
O=C(Cn1cnc2ccccc2c1=O)Nc1cccc(S(=O)(=O)N2CCCCC2)c1,"inconclusive: 100 µM [inhibitor, partial curve, poor fit]",
Cc1ccc(Nc2c(-c3c[nH]c4ccccc34)nc3ccccn23)cc1,inactive,
Cc1cc(OCC(=O)Nc2ccncc2)cc(C)c1Cl,"inconclusive: 39.8 µM [inhibitor, full curve, poor fit]",
CCCOC(=O)C1=C(C)NC2=C(C(=O)CCC2)C1c1cc(OC)ccc1OC (stereo unspecified),"inconclusive: 89.1 µM [inhibitor, single point]",
Cc1ccc(Oc2ncccc2NC(=O)CCCC(=O)O)c2c1CCC2,inactive,
C/C(N)=C(/C#N)C(=O)CSc1ncnc2ccccc12,"inconclusive: 22.4 µM [inhibitor, full curve, poor fit]",
O=C(COC(=O)CCc1nc2ccccc2s1)NC(=O)NCc1ccco1,"inconclusive: 89.1 µM [inhibitor, single point]",
CC(C)(C)c1ccc(C(=O)N/C(=C\c2ccco2)C(=O)Nc2ccccc2C(=O)O)cc1,"inconclusive: 89.1 µM [inhibitor, single point]",
Cc1ccc(-n2ncc(C(=O)N3CCN(c4cc(Cl)ccc4C)CC3)c2C2CCN(C(=O)OC(C)(C)C)CC2)cc1,inactive,
CS(=O)(=O)Nc1ccc(C2=NN(C(=O)c3ccco3)C(c3ccc(F)cc3)C2)cc1 (stereo unspecified),inactive,
COc1ccc(CCNC(=O)c2ccc3c(c2)N(Cc2ccccc2)C(=O)c2ccccc2S3=O)cc1OC (stereo unspecified),"inconclusive: 50.1 µM [inhibitor, partial curve]",
Cc1c(Cl)cccc1-c1ccc(CNCCSc2nnnn2-c2ccccc2)o1,inactive,
COc1ccc(OC)c(/C=C2\NC(=O)NC2=O)c1,"inconclusive: 3.16 µM [inhibitor, full curve, poor fit]",
CC1=C2C(CCS2(=O)=O)CC2(C1)C(=O)OC(C)(C)OC2=O (stereo unspecified),"inconclusive: 25.1 µM [inhibitor, full curve]",
C=Cc1cccc(NC(=O)c2ccc(NC(=O)c3ccco3)cc2)c1,"inconclusive: 20 µM [inhibitor, single point]",
CC1CC(C)CN(S(=O)(=O)c2ccc3c(c2)CC(C)N3C(=O)C2CCC2)C1 (stereo unspecified),"inconclusive: 0.447 µM [inhibitor, full curve, poor fit]",

# — PubChem BioAssay AID485314 (National Center for Advancing Translational Sciences (NCATS), 2010)
